From patent EP0866075B1, “Method to treat microbial infections by uncoupling of phosphotransferase system and appropriate agents therefor” (priority 1997, dated 1998) come the findings set out here.

In the test the target is enzyme I (phosphoenolpyruvate-protein phosphotransferase, EC 2.7.3.9) of the E. coli phosphotransferase system (E. coli) (UniProt P08839). Nature of the test: M13 phage display panning with enzyme I.

Results are given in words; binding and its absence hold for the method and conditions named. Some binding calls cover weakened binding; strength is not graded here.

B1: peptide 31 … (peptide)
peptide: MRLLKTLCFGLCG
B1: the binding result was “binds”.
